The series is described as follows: Regeneration (hydrolysis) of MKH-ester derivatives to MKH in S9 fractions. Type of series: in vitro ADME. As for the experimental part:
To assess the regeneration to the parental form, MKH, from the MKH-ester derivatives by an esterase of HCC, MKH-ACT, MKH-DMG and MKH-SUC were incubated at 37 °C in S9 fractions obtained from PLC/PRF/5 or SK-Hep-1 cells. The velocities of MK-4 generated in the S9 fractions were plotted as the amount of MKH, because MKH is rapidly oxidized to MK-4 during drug extraction and measurement. The regeneration versus […] profile was fitted by the Michaelis--Menten model (shown in Figure 4) and the kinetic parameters were calculated (Table 2). The regeneration velocities of MKH-ACT in both PLC/PRF/5 and SK-Hep-1 cells reached a plateau at about 3 μM MKH-ACT. MKH-DMG reached a plateau in PLC/PRF/5 and SK-Hep-1 cells at 25 μM and about 6 μM MKH-DMG, respectively. MKH-SUC reached a plateau in PLC/PRF/5 and SK-Hep-1 cells at about 0.6 μM and about 1.5 μM MKH-SUC, respectively. The level scale of MKH regeneration from MKH-SUC was about 100-fold higher than those of MKH-ACT and MKH-DMG.
The hydrolysis of the esters was performed at 37 °C in S9 fractions of PLC/PRF/5 and SK-Hep-1 cells after ultrasonic homogenization and centrifugation (10,000× g, 1 h) in isotonic phosphate buffer (pH 7.4). Stock solutions of each ester were made in the same manner as the cell viability assay, and the solutions were diluted with 0.1% w/v albumin in PBS. The enzymatic reactions were initiated by adding 5 μL of the diluted of each ester into amber test tubes containing 95 μL of preheated S9 fractions. A BCA protein assay (PIERCE/Thermo Fisher Scientific Inc., Waltham, MA, USA) was used to determine protein concentrations, and the final S9 concentration was adjusted to 1.0 mg of protein/mL in PBS. The solutions were incubated at 37 °C, and at appropriate times, the aliquots from the reaction were combined with an equal volume of methanol and three times volume of n-hexane. The samples were vortexed for 2 min and centrifuged at 1750× g for 10 min. The upper layer (n-hexane) was collected and evaporated under nitrogen. The residue was reconstituted with 100 μL of methanol, sonicated for 10 s and subjected to LC-MS/MS analysis as described below.
The LC-MS/MS analysis was performed with the same instrument under the same conditions as in an earlier report, except for the following MS/MS-multiple reaction monitoring (MRM) setting and retention times: MRM: m/z 532→171, [M + H]^+ MKH-ACT adduct; m/z 664→187, [M + NH4]^+ MKH-SUC adduct; retention times: MKH-ACT, 1.7 min; and MKH-SUC, 1.1 min.
For the determination of Km and Vmax for the uptake and enzymatic activation of MKH-esters, concentration-dependency data were fit to the Michaelis--Menten equation:V = Vmax·[S]/(Km + [S])(1) where V represents the velocity of action between the substrate and transportation/enzymatic reaction, [S] refers to the concentration of the substrate and Km is defined as the concentration of substrate at the half-maximal rate of action (Vmax). Data were analyzed by GraphPad Prism (GraphPad Software).

This is an account of results in publication PMC6100056, “Antitumor Effects and Delivery Profiles of Menahydroquinone-4 Prodrugs with Ionic or Nonionic Promoiety to Hepatocellular Carcinoma Cells” (Molecules : A Journal of Synthetic Chemistry and Natural …, 2018).

Where a name gives a salt, the structure may show the parent alone.

Turning to `CC(C)=CCC/C(C)=C/CC/C(C)=C/CC/C(C)=C/Cc1c(C)c(OC(=O)CN(C)C)c2ccccc2c1OC(=O)CN(C)C` [MKH-DMG, Menahydroquinone-4 1,4-bis-N,N-dimethylglycinate hydrochloride], the “Concentration at which regeneration velocity reached a plateau” value (from here on “Concentration”) was 25 µM (S9 of PLC/PRF/5 cells) and “about 6 μM” (S9 of SK-Hep-1 cells).
Regarding `CC(C)=CCC/C(C)=C/CC/C(C)=C/CC/C(C)=C/Cc1c(C)c(OC(=O)CCC(=O)O)c2ccccc2c1OC(=O)CCC(=O)O` [MKH-SUC, Menahydroquinone-4 1,4-bis hemisuccinate], the “Concentration” value runs as follows: (S9 of PLC/PRF/5 cells) “about 0.6 μM”; (S9 of SK-Hep-1 cells) “about 1.5 μM”.
Take `CC(=O)Oc1c(C)c(C/C=C(\C)CC/C=C(\C)CC/C=C(\C)CCC=C(C)C)c(OC(C)=O)c2ccccc12` [MKH-ACT, Menahydroquinone-4 1,4-bis acetate]: the “Concentration” value was “about 3 μM” (S9 of PLC/PRF/5 cells) and “about 3 μM” (S9 of SK-Hep-1 cells).
